Patent publication US6617120
For part of these data: The exact form of at least one protein or probe is not confirmed. For part of these data: No signal at the amounts used counts as a negative.

Tests used:
[1] = system: RXR (endogenous, without OR-1); experiment: activity in cells; conditions: no induction by 9-cis retinoic acid without OR-1; protein in cells; only the site is given
[2] = system: OR-1 with RXR in transfected cells; experiment: activity in cells; conditions: DR4 reporter induced by 100 nM 9-cis retinoic acid; protein in cells; only the site is given
RXR = experiment: EMSA; conditions: RXR alone; protein translated in vitro

## AGTCAGGTCACTCGAGGTCAGTCA (double strand) [DR4]
[1]
  activity on this sequence: not active
[2]
  activity on this sequence: active
RXR
  binding result: no binding
